For experiment [1], the target named is T1, MSCS-LIKE 8 (MSL8) fused to the C-terminal half of yeast ubiquitin (MSL8-Cub) (Arabidopsis thaliana) (UniProt F4IME2).
T1 sequence: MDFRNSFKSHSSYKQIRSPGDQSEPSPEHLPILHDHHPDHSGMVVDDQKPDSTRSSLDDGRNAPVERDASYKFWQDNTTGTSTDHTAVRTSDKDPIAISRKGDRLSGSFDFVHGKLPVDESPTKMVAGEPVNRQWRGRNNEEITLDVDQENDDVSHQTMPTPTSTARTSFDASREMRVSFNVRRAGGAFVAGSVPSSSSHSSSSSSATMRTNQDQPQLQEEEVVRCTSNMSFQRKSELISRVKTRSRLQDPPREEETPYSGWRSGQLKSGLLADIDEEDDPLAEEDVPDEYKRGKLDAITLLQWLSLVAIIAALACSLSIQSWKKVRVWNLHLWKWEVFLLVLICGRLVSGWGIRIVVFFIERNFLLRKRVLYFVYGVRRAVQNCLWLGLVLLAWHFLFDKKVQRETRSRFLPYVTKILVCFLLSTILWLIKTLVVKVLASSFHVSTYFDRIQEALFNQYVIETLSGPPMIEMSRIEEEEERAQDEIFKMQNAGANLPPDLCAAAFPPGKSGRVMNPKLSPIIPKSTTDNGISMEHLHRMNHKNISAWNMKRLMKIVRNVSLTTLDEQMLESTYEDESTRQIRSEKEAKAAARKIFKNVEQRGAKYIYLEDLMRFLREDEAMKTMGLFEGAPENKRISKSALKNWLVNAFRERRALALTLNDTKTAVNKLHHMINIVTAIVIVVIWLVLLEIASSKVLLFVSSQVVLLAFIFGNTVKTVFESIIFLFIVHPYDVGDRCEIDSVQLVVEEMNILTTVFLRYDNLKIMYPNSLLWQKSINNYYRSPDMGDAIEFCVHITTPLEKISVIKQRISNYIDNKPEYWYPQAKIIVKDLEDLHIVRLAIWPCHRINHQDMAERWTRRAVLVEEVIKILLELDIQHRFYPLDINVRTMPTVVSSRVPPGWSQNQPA
Briefly: two-hybrid; split-ubiquitin (dual-membrane) yeast two-hybrid; MSL8-Cub as bait, NubG fusions as prey; growth assay (Dualsystem Biotech).

For experiment [2], the target named is T2, GFP-SYP72 (pSYP72:GFP-SYP72, Arabidopsis pollen) (Arabidopsis thaliana) (UniProt Q94KK6).
T2 sequence: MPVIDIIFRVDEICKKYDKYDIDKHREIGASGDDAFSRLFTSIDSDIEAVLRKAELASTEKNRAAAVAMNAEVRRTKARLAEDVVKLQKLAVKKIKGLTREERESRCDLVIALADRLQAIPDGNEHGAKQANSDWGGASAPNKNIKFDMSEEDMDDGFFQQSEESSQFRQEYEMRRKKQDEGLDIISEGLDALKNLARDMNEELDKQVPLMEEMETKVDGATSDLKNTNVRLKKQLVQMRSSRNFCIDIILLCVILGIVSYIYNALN
Briefly: co-IP; GFP-trap on extracts of Arabidopsis flower buds containing mature pollen that express both proteins; 0.1 M Tris-HCl pH 7.4, 150 mM NaCl, 0.5% NP-40; blot with anti-Myc.

For experiment [3], the target named is T3, GFP-SYP72 (35S:GFP-SYP72, N. benthamiana leaves) (Arabidopsis thaliana) (UniProt Q94KK6).
T3 sequence: T2 sequence
Briefly: co-IP; GFP-trap on total protein of N. benthamiana leaves transiently coexpressing both proteins; 0.1 M Tris-HCl pH 7.4, 150 mM NaCl, 0.5% NP-40; blot with anti-Myc.

These are yes or no findings as the source states them, for the method shown. For some of these results: Binding seen in cells or lysates may run through a third protein. Some binding calls cover weakened binding; strength is not graded here. Sequences can lack the tags named with a protein.

B1: Qc-SNARE SYP52 fused to NubG (protein, UniProt Q94KK7 1-233)
chain: MASSSDPWMREYNEALKLSEDINGMMSERNASGLTGPDAQRRASAIRRKITILGTRLDSLQSLLVKVPGKQHVSEKEMNRRKDMVGNLRSKTNQVASALNMSNFANRDSLFGTDLKPDDAINRVSGMDNQGIVVFQRQVMREQDEGLEKLEETVMSTKHIALAVNEELTLQTRLIDDLDYDVDITDSRLRRVQKSLALMNKSMKSGCSCMSMLLSVLGIVGLALVIWLLVKYL
B1: the binding entry in experiment [1] is “no binding”.

B2: MSL8-6×Myc (LAT52:MSL8-6×Myc, Arabidopsis pollen) (protein, UniProt F4IME2 1-908)
chain: T1 sequence
On to B2, for which the binding entry in experiment [2] was “binds”.

B3: MSL8-6×Myc (35S:MSL8-6×Myc, N. benthamiana leaves) (protein, UniProt F4IME2 1-908)
chain: T1 sequence
As to B3, in experiment [3], the binding entry is listed as “binds”.

B4: SYNTAXIN OF PLANTS 72 (SYP72) fused to the N-terminal half of yeast ubiquitin NubG (NubG-SYP72) (protein, UniProt Q94KK6 1-267)
chain: T2 sequence
For the molecule B4, the binding result in experiment [1] was “binds”.

Values taken from publication PMC8748641.
